Data on one substance can be found in article PMC12803835.

The chains behind the UniProt entries cited, without tags or fusion partners.
UniProt B2RXQ2: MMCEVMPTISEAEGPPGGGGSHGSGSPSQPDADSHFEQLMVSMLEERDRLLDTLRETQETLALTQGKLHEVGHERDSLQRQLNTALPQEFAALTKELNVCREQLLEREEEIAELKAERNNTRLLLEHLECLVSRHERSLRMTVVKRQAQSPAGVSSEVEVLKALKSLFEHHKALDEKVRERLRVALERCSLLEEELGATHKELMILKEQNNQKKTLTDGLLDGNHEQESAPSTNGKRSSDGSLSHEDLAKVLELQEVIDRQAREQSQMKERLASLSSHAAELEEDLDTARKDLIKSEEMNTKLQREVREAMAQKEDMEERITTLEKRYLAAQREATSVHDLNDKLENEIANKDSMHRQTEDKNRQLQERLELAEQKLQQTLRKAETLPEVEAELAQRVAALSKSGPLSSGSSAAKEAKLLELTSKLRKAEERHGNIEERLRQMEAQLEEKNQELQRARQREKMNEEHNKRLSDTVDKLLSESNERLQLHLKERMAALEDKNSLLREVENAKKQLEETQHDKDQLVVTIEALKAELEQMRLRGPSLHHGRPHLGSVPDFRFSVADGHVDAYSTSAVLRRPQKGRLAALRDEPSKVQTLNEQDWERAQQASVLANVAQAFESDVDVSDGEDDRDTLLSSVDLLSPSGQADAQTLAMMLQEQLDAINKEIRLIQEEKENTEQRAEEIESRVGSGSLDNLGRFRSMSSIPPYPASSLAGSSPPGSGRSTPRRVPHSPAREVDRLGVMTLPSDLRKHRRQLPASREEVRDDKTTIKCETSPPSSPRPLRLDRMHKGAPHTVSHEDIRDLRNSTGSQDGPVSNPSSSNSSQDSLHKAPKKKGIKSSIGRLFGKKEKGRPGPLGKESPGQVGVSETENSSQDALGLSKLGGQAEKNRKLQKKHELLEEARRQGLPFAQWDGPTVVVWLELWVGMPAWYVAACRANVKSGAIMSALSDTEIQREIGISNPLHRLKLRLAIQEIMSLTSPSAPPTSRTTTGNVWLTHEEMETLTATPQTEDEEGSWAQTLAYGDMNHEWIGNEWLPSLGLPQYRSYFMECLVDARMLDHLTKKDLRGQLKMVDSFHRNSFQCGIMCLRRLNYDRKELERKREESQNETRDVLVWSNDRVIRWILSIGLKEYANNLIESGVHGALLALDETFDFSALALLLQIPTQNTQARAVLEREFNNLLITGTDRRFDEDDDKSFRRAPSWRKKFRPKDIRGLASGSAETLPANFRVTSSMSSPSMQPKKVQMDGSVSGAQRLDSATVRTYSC

This experiment deals with T1, liprin-β1 (mouse (endogenous in MIN6)) (UniProt Q8C8U0).
T1 sequence: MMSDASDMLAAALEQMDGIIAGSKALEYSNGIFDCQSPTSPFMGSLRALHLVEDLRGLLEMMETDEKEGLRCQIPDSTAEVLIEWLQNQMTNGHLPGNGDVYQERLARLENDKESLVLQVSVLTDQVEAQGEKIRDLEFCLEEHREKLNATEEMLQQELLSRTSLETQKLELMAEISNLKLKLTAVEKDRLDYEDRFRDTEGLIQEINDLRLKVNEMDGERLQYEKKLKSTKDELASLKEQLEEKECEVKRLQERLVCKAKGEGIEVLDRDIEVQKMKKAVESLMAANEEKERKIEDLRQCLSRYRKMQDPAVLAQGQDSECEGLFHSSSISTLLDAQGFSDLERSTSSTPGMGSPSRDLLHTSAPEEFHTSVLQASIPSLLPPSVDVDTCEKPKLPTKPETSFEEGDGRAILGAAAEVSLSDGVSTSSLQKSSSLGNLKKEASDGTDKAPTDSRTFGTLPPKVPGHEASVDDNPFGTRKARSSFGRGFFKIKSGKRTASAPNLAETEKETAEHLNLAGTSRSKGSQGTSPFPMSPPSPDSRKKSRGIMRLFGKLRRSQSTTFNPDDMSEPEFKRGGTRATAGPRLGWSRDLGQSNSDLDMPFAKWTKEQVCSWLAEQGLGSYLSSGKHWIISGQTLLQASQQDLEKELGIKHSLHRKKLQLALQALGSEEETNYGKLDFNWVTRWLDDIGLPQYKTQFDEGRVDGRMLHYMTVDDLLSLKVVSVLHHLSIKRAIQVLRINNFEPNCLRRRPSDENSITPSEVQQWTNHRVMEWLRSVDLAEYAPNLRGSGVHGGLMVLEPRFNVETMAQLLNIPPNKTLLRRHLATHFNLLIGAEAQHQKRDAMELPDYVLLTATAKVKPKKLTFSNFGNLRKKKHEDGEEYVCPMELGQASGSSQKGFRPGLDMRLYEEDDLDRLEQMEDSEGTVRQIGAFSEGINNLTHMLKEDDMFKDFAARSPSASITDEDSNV
The experiment is described as follows: co-IP; MIN6 β-cell line; immunoprecipitation of endogenous liprin-β1 with anti-liprin-β1 antibody, IgG control; blots for liprin-α1 and KANK1; n = 3.

Results are given in words; binding and its absence hold for the method and conditions named. In cells and extracts the contact can be indirect. Some results given as binding are weak or reduced against the parent protein; the word gives no strength.

With liprin-α1 (from UniProt B2RXQ2 1-1266), the binding result is on record as “binds”.
